PubChem BioAssay AID1259254 – NCATS | 2017
Purpose: 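Finding genes that stop cells copying their DNA twice in one cycle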 (primary screen). Cell system: human HCT116 colorectal cancer cells. Reagents: single siRNA against human genes. Duration: 3 days. Detection: 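Imaged Hoechst DNA stain sorts each cell into a cycle phase by DNA amount; per plate, G2 fraction set to 0% for non-targeting and 100% for GMNN siRNA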. Scale: G2 robust z-score and G2 cells, % of GMNN control: higher = more G2 cells, more excess DNA replication. Rule for the call: 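An siRNA counts as active if its G2 robust z-score lies at least 5 MADs above the screen median; here such calls match roughly 38% of GMNN control or more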.
This is an unselected part of about 59,000 reagents tested. About 1,550 of all reagents (2.6%) count as active. 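G2 share is only a proxy for re-replication; each gene was hit by three separate siRNAs, and active genes were retested.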 A number with no mark means an inactive call. Reagents against one gene are numbered here. Not all columns of the deposit are shown. The record does not give: the amount of reagent.

| gene symbol | siRNA no. | G2 robust z-score | G2 cells, % of GMNN control |
| --- | --- | --- | --- |
| ZNF483 (zinc finger protein 483) | 1 | 2.84 | 23 |
| ZNF483 (zinc finger protein 483) | 2 | -0.09 | 2.33 |
| ZNF483 (zinc finger protein 483) | 3 | -0.571 | -1.05 |
| C12orf56 (chromosome 12 open reading frame 56) | 1 | -0.75 | -2.31 |
| C12orf56 (chromosome 12 open reading frame 56) | 2 | 1.62 | 14.3 |
| C12orf56 (chromosome 12 open reading frame 56) | 3 | -0.709 | -2.02 |
| PUS7 (pseudouridine synthase 7) | 1 | -0.279 | 1 |
| PUS7 (pseudouridine synthase 7) | 2 | -0.72 | -2.1 |
| PUS7 (pseudouridine synthase 7) | 3 | -0.638 | -1.52 |
| NELFB (negative elongation factor complex member B) | 1 | 1.46 | 13.2 |
| NELFB (negative elongation factor complex member B) | 2 | -0.396 | 0.178 |
| NELFB (negative elongation factor complex member B) | 3 | 0.615 | 7.3 |
| ZBTB10 (zinc finger and BTB domain containing 10) | 1 | 1.1 | 10.7 |
| ZBTB10 (zinc finger and BTB domain containing 10) | 2 | 0.511 | 6.56 |
| ZBTB10 (zinc finger and BTB domain containing 10) | 3 | -0.149 | 1.92 |
| BLOC1S5 (biogenesis of lysosomal organelles complex 1 subunit 5) | 1 | 1.26 | 11.8 |
| BLOC1S5 (biogenesis of lysosomal organelles complex 1 subunit 5) | 2 | -0.89 | -3.29 |
| BLOC1S5 (biogenesis of lysosomal organelles complex 1 subunit 5) | 3 | -0.194 | 1.6 |
| ADGRE4P (adhesion G protein-coupled receptor E4, pseudogene) | 1 | -0.0151 | 2.86 |
| ADGRE4P (adhesion G protein-coupled receptor E4, pseudogene) | 2 | -0.765 | -2.41 |
| ADGRE4P (adhesion G protein-coupled receptor E4, pseudogene) | 3 | 0.0184 | 3.1 |
| RIPK2 (receptor interacting serine/threonine kinase 2) | 1 | -0.175 | 1.73 |
| RIPK2 (receptor interacting serine/threonine kinase 2) | 2 | 2.98 | 24 |
| RIPK2 (receptor interacting serine/threonine kinase 2) | 3 | -0.835 | -2.91 |
| BCL11B (BCL11 transcription factor B) | 1 | 0.092 | 3.62 |
| BCL11B (BCL11 transcription factor B) | 2 | -0.357 | 0.458 |
| BCL11B (BCL11 transcription factor B) | 3 | -0.975 | -3.89 |

Not a retest: entries from further up.
| gene symbol | siRNA no. | G2 robust z-score | G2 cells, % of GMNN control |
| --- | --- | --- | --- |
| PUS7 (pseudouridine synthase 7) | 1 | -0.279 | 1 |
| PUS7 (pseudouridine synthase 7) | 2 | -0.72 | -2.1 |
| PUS7 (pseudouridine synthase 7) | 3 | -0.638 | -1.52 |
| NELFB (negative elongation factor complex member B) | 1 | 1.46 | 13.2 |
| NELFB (negative elongation factor complex member B) | 2 | -0.396 | 0.178 |
| NELFB (negative elongation factor complex member B) | 3 | 0.615 | 7.3 |
| ZBTB10 (zinc finger and BTB domain containing 10) | 1 | 1.1 | 10.7 |

Continued:
| gene symbol | siRNA no. | G2 robust z-score | G2 cells, % of GMNN control |
| --- | --- | --- | --- |
| MRPL46 (mitochondrial ribosomal protein L46) | 1 | -1.29 | -6.14 |
| MRPL46 (mitochondrial ribosomal protein L46) | 2 | -0.7 | -1.96 |
| MRPL46 (mitochondrial ribosomal protein L46) | 3 | -0.911 | -3.44 |
| WIPF2 (WAS/WASL interacting protein family member 2) | 1 | -0.945 | -3.68 |
| WIPF2 (WAS/WASL interacting protein family member 2) | 2 | -0.901 | -3.37 |
| WIPF2 (WAS/WASL interacting protein family member 2) | 3 | -0.751 | -2.31 |
| PTGR3 (prostaglandin reductase 3) | 1 | 3.83 | 29.9 |
| PTGR3 (prostaglandin reductase 3) | 2 | 0.532 | 6.71 |
| PTGR3 (prostaglandin reductase 3) | 3 | 1.22 | 11.5 |
| NOL4L (nucleolar protein 4 like) | 1 | 0.519 | 6.62 |
| NOL4L (nucleolar protein 4 like) | 2 | 1.67 | 14.7 |
| NOL4L (nucleolar protein 4 like) | 3 | 1.53 | 13.7 |
| BZW2 (basic leucine zipper and W2 domains 2) | 1 | -1.36 | -6.57 |
| BZW2 (basic leucine zipper and W2 domains 2) | 2 | -0.801 | -2.67 |
| BZW2 (basic leucine zipper and W2 domains 2) | 3 | 1.38 | 12.7 |
| CLDND2 (claudin domain containing 2) | 1 | -0.29 | 0.93 |
| CLDND2 (claudin domain containing 2) | 2 | -0.475 | -0.376 |
| CLDND2 (claudin domain containing 2) | 3 | -0.251 | 1.2 |
| HEYL | 1 | -0.93 | -3.58 |
| HEYL | 2 | 0.606 | 7.23 |
| HEYL | 3 | -1.2 | -5.48 |
